In US20220249561A1:
No constants are given. Whether binding was seen depends on the method and setting. Some binding calls cover weakened binding; strength is not graded here.

Protein sequences, listed by entry. Tags and fused reporters are not part of them. Residues count along the entry.
UniProt P29376, residues 17-864: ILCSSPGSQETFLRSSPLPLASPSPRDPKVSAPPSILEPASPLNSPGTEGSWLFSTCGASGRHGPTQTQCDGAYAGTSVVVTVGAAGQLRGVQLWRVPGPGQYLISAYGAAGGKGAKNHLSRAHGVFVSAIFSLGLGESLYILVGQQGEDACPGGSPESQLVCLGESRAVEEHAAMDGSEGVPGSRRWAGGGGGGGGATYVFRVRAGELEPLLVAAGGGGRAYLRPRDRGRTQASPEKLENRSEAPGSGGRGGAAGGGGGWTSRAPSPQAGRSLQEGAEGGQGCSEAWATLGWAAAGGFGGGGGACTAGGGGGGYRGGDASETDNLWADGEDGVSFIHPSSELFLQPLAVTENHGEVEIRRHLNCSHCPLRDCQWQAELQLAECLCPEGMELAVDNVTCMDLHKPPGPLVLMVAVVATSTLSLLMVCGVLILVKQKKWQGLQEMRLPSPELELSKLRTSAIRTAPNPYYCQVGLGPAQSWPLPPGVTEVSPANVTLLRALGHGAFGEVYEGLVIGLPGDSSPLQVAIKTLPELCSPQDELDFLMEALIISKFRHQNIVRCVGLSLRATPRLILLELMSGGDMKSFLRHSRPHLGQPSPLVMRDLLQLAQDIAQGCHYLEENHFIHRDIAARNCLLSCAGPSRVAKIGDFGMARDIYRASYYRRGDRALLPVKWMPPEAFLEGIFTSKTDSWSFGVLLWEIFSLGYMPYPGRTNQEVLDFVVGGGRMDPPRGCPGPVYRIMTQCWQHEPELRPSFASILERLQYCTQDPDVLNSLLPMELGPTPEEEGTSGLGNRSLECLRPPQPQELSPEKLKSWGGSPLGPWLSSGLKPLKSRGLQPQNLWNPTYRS
UniProt Q9UM73, residues 19-1620: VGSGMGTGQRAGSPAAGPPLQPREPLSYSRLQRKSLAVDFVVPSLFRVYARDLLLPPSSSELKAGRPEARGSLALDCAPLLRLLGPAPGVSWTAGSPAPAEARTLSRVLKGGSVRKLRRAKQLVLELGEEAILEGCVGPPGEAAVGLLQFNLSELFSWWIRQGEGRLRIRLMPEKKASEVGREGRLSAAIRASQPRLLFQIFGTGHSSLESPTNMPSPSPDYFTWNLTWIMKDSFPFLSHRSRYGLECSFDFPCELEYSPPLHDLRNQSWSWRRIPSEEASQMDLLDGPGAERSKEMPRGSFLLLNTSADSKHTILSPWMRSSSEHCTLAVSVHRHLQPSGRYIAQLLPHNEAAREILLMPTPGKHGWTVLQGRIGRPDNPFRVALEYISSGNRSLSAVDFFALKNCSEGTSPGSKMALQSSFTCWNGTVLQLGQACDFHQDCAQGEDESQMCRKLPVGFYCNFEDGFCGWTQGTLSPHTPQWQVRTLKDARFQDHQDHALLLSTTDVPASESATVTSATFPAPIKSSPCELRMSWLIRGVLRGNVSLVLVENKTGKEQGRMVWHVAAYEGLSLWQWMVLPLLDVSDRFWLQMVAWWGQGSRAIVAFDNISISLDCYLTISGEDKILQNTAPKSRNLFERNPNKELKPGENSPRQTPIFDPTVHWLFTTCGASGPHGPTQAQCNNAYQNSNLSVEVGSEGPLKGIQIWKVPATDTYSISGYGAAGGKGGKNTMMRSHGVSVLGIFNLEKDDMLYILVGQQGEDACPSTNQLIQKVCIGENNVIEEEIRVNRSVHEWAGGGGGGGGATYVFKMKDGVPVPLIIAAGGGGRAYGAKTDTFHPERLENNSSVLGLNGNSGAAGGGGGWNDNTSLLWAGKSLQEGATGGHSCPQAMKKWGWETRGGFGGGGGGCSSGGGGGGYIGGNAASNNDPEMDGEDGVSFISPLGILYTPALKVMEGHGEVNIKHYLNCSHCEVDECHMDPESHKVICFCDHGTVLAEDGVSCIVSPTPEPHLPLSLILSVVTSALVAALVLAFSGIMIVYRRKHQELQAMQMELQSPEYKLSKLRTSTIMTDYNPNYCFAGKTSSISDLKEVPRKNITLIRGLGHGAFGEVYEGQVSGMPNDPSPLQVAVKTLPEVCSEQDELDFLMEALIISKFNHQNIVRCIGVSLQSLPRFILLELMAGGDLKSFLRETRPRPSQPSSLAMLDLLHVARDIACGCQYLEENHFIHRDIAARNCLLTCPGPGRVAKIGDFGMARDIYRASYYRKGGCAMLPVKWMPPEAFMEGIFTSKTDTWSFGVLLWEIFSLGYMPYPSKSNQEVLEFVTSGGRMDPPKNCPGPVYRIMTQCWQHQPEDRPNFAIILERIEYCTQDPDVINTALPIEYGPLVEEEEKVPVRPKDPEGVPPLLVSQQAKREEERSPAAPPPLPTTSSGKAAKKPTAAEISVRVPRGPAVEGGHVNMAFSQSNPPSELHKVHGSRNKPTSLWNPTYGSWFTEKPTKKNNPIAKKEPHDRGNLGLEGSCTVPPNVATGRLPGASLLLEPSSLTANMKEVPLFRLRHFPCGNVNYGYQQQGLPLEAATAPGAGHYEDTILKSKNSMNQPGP

Legend:
LTK 001P [1] = experiment: SPR, Biacore 8K
ALK 001P [2] = experiment: SPR, Biacore 8K
LTK 001P [3] = experiment: SPR, Biacore 8K; receptor-Fc captured on Protein A chip, ligand as analyte
ALK 001P [4] = experiment: as above
ALK 001P [5] = experiment: SPR, Biacore 8K; ALK 001P captured on Protein A chip, ligand as analyte, 6 concentrations from 19.9 nM
[6] = biological target: LTK expressed on CHO-K1 clone L10 (UniProt P29376); experiment: flow cytometry; FAM150B-His protein on CHO-K1 clone L10, detected with PE anti-His tag antibody
[7] = biological target: ALK expressed on CHO-K1 clone A24 (UniProt Q9UM73); experiment: flow cytometry; FAM150B-His protein on CHO-K1 clone A24, detected with PE anti-His tag antibody
LTK 001P [8] = experiment: SPR, Biacore 8K; LTK 001P captured on Protein A chip, ligand as analyte, 6 concentrations from 19.9 nM

binding (LTK 001P [1]): binds
binding (ALK 001P [2]): binds
binding (LTK 001P [3]): binds
binding (ALK 001P [4]): binds
binding (ALK 001P [5]): binds
binding [6]: binds
binding [7]: binds
binding (LTK 001P [8]): binds
B1: Ligand 002P (ligand)
chain: DGHHHHHHGSLQDSEVNQEAKPEVKPEVKPETHINLKVSDGSSEIFFKIKKTTPLRRLMEAFAKRQGKEMDSLTFLYDGIEIQADQTPEDLDMEDNDIIEAHREQIGGLEVLFQGPAEAAGLGPSPEQRVEIVPRDLRMKDKFLKHLTGPLYFSPKCSKHFHRLYHNTRDCTIPAYYKRCARLLTRLAVSPVCMEDKQ
